# Laboratory results published in the supplement of paper PMC8728848.
# This is one part of the list.
# How the values were obtained:
# Assay in all cases: glycan array binding signal (z-score within array); higher = stronger binding
# Conditions in all cases: glycan notation: IUPAC condensed, linker removed
# [1] = target: Neu5Ac(a2-3)Gal6S(b1-4)[Fuc(a1-3)]GlcNAc
# Summary of the method: (§1)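 Glycan array data were curated from 3228 arrays in the Consortium for Functional Glycomics database and kept only where the protein sequence was available. Glycan names were converted to IUPAC-condensed notation, and columns mapping to the same glycan were averaged. The binding signal is a within-array Z-score, averaged across arrays of the same protein sequence at different concentrations or buffers and across linkers. Negative Z-scores can be read as non-binding.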
# [2] = target: Neu5Ac(a2-3)GalNAc
# Summary of the method: as §1
# [3] = target: Neu5Ac(a2-3)GalNAc(b1-4)GlcNAc
# Summary of the method: as §1
# [4] = target: Neu5Ac(a2-3)[GalNAc(b1-4)]Gal(b1-4)Glc
# Summary of the method: as §1
# [5] = target: Neu5Ac(a2-3)[GalNAc(b1-4)]Gal(b1-4)GlcNAc
# Summary of the method: as §1
# [6] = target: Neu5Ac(a2-3)[GalNAc(b1-4)]Gal(b1-4)GlcNAc(b1-3)GalNAc
# Summary of the method: as §1
# [7] = target: Neu5Ac(a2-3)[Neu5Ac(a2-6)]GalNAc
# Summary of the method: as §1
# [8] = target: Neu5Ac(a2-6)Gal
# Summary of the method: as §1
# [9] = target: Neu5Ac(a2-6)Gal(b1-3)GlcNAc(b1-3)[Gal(b1-4)GlcNAc(b1-6)]Gal(b1-4)Glc
# Summary of the method: as §1
# [10] = target: Neu5Ac(a2-6)Gal(b1-4)Glc
# Summary of the method: as §1
# [11] = target: Neu5Ac(a2-6)Gal(b1-4)GlcNAc
# Summary of the method: as §1
# [12] = target: Neu5Ac(a2-6)Gal(b1-4)GlcNAc(b1-2)Man
# Summary of the method: as §1
# [13] = target: Neu5Ac(a2-6)Gal(b1-4)GlcNAc(b1-2)Man(a1-3)Man(b1-4)GlcNAc(b1-4)GlcNAc
# Summary of the method: as §1
# [14] = target: Neu5Ac(a2-6)Gal(b1-4)GlcNAc(b1-2)Man(a1-3)[Gal(b1-4)GlcNAc(b1-2)Man(a1-6)]Man(b1-4)GlcNAc(b1-4)GlcNAc
# Summary of the method: as §1
# [15] = target: Neu5Ac(a2-6)Gal(b1-4)GlcNAc(b1-2)Man(a1-3)[GlcNAc(b1-2)Man(a1-6)]Man(b1-4)GlcNAc(b1-4)GlcNAc
# Summary of the method: as §1
# [16] = target: Neu5Ac(a2-6)Gal(b1-4)GlcNAc(b1-2)Man(a1-3)[GlcNAc(b1-4)][Neu5Ac(a2-6)Gal(b1-4)GlcNAc(b1-2)Man(a1-6)]Man(b1-4)GlcNAc(b1-4)GlcNAc
# Summary of the method: as §1
# [17] = target: Neu5Ac(a2-6)Gal(b1-4)GlcNAc(b1-2)Man(a1-3)[Man(a1-6)]Man(b1-4)GlcNAc(b1-4)GlcNAc
# Summary of the method: as §1
# [18] = target: Neu5Ac(a2-6)Gal(b1-4)GlcNAc(b1-2)Man(a1-3)[Neu5Ac(a2-3)Gal(b1-4)GlcNAc(b1-2)Man(a1-6)]Man(b1-4)GlcNAc(b1-4)GlcNAc
# Summary of the method: as §1
# [19] = target: Neu5Ac(a2-6)Gal(b1-4)GlcNAc(b1-2)Man(a1-3)[Neu5Ac(a2-6)Gal(b1-4)GlcNAc(b1-2)Man(a1-6)]Man(b1-4)GlcNAc(b1-4)GlcNAc
# Summary of the method: as §1
# [20] = target: Neu5Ac(a2-6)Gal(b1-4)GlcNAc(b1-2)Man(a1-3)[Neu5Ac(a2-6)Gal(b1-4)GlcNAc(b1-2)Man(a1-6)]Man(b1-4)GlcNAc(b1-4)[Fuc(a1-6)]GlcNAc
# Summary of the method: as §1
# [21] = target: Neu5Ac(a2-6)Gal(b1-4)GlcNAc(b1-2)Man(a1-6)Man(b1-4)GlcNAc(b1-4)GlcNAc
# Summary of the method: as §1
# [22] = target: Neu5Ac(a2-6)Gal(b1-4)GlcNAc(b1-2)Man(a1-6)[Gal(b1-4)GlcNAc(b1-2)Man(a1-3)]Man(b1-4)GlcNAc(b1-4)GlcNAc
# Summary of the method: as §1
# [23] = target: Neu5Ac(a2-6)Gal(b1-4)GlcNAc(b1-2)Man(a1-6)[GlcNAc(b1-2)Man(a1-3)]Man(b1-4)GlcNAc(b1-4)GlcNAc
# Summary of the method: as §1
# [24] = target: Neu5Ac(a2-6)Gal(b1-4)GlcNAc(b1-2)Man(a1-6)[Man(a1-3)]Man(b1-4)GlcNAc(b1-4)GlcNAc
# Summary of the method: as §1
# [25] = target: Neu5Ac(a2-6)Gal(b1-4)GlcNAc(b1-2)[Neu5Ac(a2-6)Gal(b1-4)GlcNAc(b1-4)]Man(a1-3)[GlcNAc(b1-4)][Neu5Ac(a2-6)Gal(b1-4)GlcNAc(b1-2)[Neu5Ac(a2-6)Gal(b1-4)GlcNAc(b1-6)]Man(a1-6)]Man(b1-4)GlcNAc(b1-4)GlcNAc
# Summary of the method: as §1
# [26] = target: Neu5Ac(a2-6)Gal(b1-4)GlcNAc(b1-2)[Neu5Ac(a2-6)Gal(b1-4)GlcNAc(b1-4)]Man(a1-3)[GlcNAc(b1-4)][Neu5Ac(a2-6)Gal(b1-4)GlcNAc(b1-4)Man(a1-6)]Man(b1-4)GlcNAc(b1-4)GlcNAc
# Summary of the method: as §1
# [27] = target: Neu5Ac(a2-6)Gal(b1-4)GlcNAc(b1-2)[Neu5Ac(a2-6)Gal(b1-4)GlcNAc(b1-6)]Man(a1-6)[Neu5Ac(a2-6)Gal(b1-4)GlcNAc(b1-2)Man(a1-3)][GlcNAc(b1-4)]Man(b1-4)GlcNAc(b1-4)GlcNAc
# Summary of the method: as §1
# [28] = target: Neu5Ac(a2-6)Gal(b1-4)GlcNAc(b1-3)Gal(b1-3)GlcNAc
# Summary of the method: as §1
# [29] = target: Neu5Ac(a2-6)Gal(b1-4)GlcNAc(b1-3)Gal(b1-4)GlcNAc
# Summary of the method: as §1
# [30] = target: Neu5Ac(a2-6)Gal(b1-4)GlcNAc(b1-3)Gal(b1-4)GlcNAc(b1-2)Man(a1-3)[Neu5Ac(a2-6)Gal(b1-4)GlcNAc(b1-3)Gal(b1-4)GlcNAc(b1-2)Man(a1-6)]GalNAc
# Summary of the method: as §1
# [31] = target: Neu5Ac(a2-6)Gal(b1-4)GlcNAc(b1-3)Gal(b1-4)GlcNAc(b1-3)Gal(b1-4)GlcNAc
# Summary of the method: as §1
# [32] = target: Neu5Ac(a2-6)Gal(b1-4)GlcNAc(b1-3)Gal(b1-4)GlcNAc(b1-3)Gal(b1-4)GlcNAc(b1-2)Man(a1-3)[Neu5Ac(a2-6)Gal(b1-4)GlcNAc(b1-3)Gal(b1-4)GlcNAc(b1-3)Gal(b1-4)GlcNAc(b1-2)Man(a1-6)]GalNAc
# Summary of the method: as §1
# [33] = target: Neu5Ac(a2-6)Gal(b1-4)GlcNAc(b1-3)Gal(b1-4)GlcNAc(b1-3)GalNAc
# Summary of the method: as §1
# [34] = target: Neu5Ac(a2-6)Gal(b1-4)GlcNAc(b1-3)Gal(b1-4)GlcNAc(b1-3)[Neu5Ac(a2-6)Gal(b1-4)GlcNAc(b1-3)Gal(b1-4)GlcNAc(b1-6)]GalNAc
# Summary of the method: as §1
# [35] = target: Neu5Ac(a2-6)Gal(b1-4)GlcNAc(b1-3)Gal(b1-4)GlcNAc(b1-6)[Gal(b1-3)]GalNAc
# Summary of the method: as §1
# [36] = target: Neu5Ac(a2-6)Gal(b1-4)GlcNAc(b1-3)Gal(b1-4)[Fuc(a1-3)]GlcNAc(b1-3)Gal(b1-4)[Fuc(a1-3)]GlcNAc
# Summary of the method: as §1
# [37] = target: Neu5Ac(a2-6)Gal(b1-4)GlcNAc(b1-3)GalNAc
# Summary of the method: as §1
binder,measurement,setting,value
"AT1G77380(17) (Arabidopsis thaliana), Q39134 (protein) MVQNHQTVLAVDMPQTGGSKYLDDDGKNKRTGSVWTASAHIITAVIGSGVLSLAWATAQLGWLAGPVVMLLFSAVTYFTSSLLAACYRSGDPISGKRNYTYMDAVRSNLGGVKVTLCGIVQYLNIFGVAIGYTIASAISMMAIKRSNCFHKSGGKDPCHMNSNPYMIAFGLVQILFSQIPDFDQLWWLSILAAVMSFTYSSAGLALGIAQVVVNGKVKGSLTGISIGAVTETQKIWRTFQALGDIAFAYSYSIILIEIQDTVKSPPSEEKTMKKATLVSVSVTTMFYMLCGCMGYAAFGDLSPGNLLTGFGFYNPYWLLDIANAAIVIHLIGAYQVYCQPLFAFIEKQASIQFPDSEFIAKDIKIPIPGFKPLRLNVFRLIWRTVFVIITTVISMLLPFFNDVVGLLGALGFWPLTVYFPVEMYIAQKKIPRWSTRWVCLQVFSLGCLVVSIAAAAGSIAGVLLDLKSYKPFRSEY",glycan array binding signal (z-score),[1],-0.844
same,glycan array binding signal (z-score),[2],0.674
same,glycan array binding signal (z-score),[3],0.486
same,glycan array binding signal (z-score),[4],-0.752
same,glycan array binding signal (z-score),[5],-0.431
same,glycan array binding signal (z-score),[6],-0.317
same,glycan array binding signal (z-score),[7],1.61
same,glycan array binding signal (z-score),[8],2.3
same,glycan array binding signal (z-score),[9],-0.985
same,glycan array binding signal (z-score),[10],0.059
same,glycan array binding signal (z-score),[11],-0.582
same,glycan array binding signal (z-score),[12],1.03
same,glycan array binding signal (z-score),[13],-0.792
same,glycan array binding signal (z-score),[14],-0.735
same,glycan array binding signal (z-score),[15],-0.477
same,glycan array binding signal (z-score),[16],0.883
same,glycan array binding signal (z-score),[17],-0.896
same,glycan array binding signal (z-score),[18],-0.533
same,glycan array binding signal (z-score),[19],0.247
same,glycan array binding signal (z-score),[20],-0.502
same,glycan array binding signal (z-score),[21],-0.081
same,glycan array binding signal (z-score),[22],-0.965
same,glycan array binding signal (z-score),[23],-0.321
same,glycan array binding signal (z-score),[24],-0.006
same,glycan array binding signal (z-score),[25],-0.506
same,glycan array binding signal (z-score),[26],-0.156
same,glycan array binding signal (z-score),[27],0.421
same,glycan array binding signal (z-score),[28],-0.399
same,glycan array binding signal (z-score),[29],-0.821
same,glycan array binding signal (z-score),[30],-0.683
same,glycan array binding signal (z-score),[31],0.309
same,glycan array binding signal (z-score),[32],-0.363
same,glycan array binding signal (z-score),[33],-0.693
same,glycan array binding signal (z-score),[34],-0.695
same,glycan array binding signal (z-score),[35],-0.578
same,glycan array binding signal (z-score),[36],0.862
same,glycan array binding signal (z-score),[37],-0.177

# Some of the entries above, set out differently.
binder	measurement	setting	value
AT1G77380(17) (Arabidopsis thaliana), Q39134 (protein) MVQNHQTVLAVDMPQTGGSKYLDDDGKNKRTGSVWTASAHIITAVIGSGVLSLAWATAQLGWLAGPVVMLLFSAVTYFTSSLLAACYRSGDPISGKRNYTYMDAVRSNLGGVKVTLCGIVQYLNIFGVAIGYTIASAISMMAIKRSNCFHKSGGKDPCHMNSNPYMIAFGLVQILFSQIPDFDQLWWLSILAAVMSFTYSSAGLALGIAQVVVNGKVKGSLTGISIGAVTETQKIWRTFQALGDIAFAYSYSIILIEIQDTVKSPPSEEKTMKKATLVSVSVTTMFYMLCGCMGYAAFGDLSPGNLLTGFGFYNPYWLLDIANAAIVIHLIGAYQVYCQPLFAFIEKQASIQFPDSEFIAKDIKIPIPGFKPLRLNVFRLIWRTVFVIITTVISMLLPFFNDVVGLLGALGFWPLTVYFPVEMYIAQKKIPRWSTRWVCLQVFSLGCLVVSIAAAAGSIAGVLLDLKSYKPFRSEY	glycan array binding signal (z-score)	[10]	0.059
same	glycan array binding signal (z-score)	[11]	-0.582
same	glycan array binding signal (z-score)	[12]	1.03
